The other results are listed elsewhere or left out.
Key:
Assay in all cases: log2 fold change, soluble protein after heating vs DMSO (PISA); higher = thermal stabilisation; K562 lysate, 10 uM; active = over 0.2 and 3.5 SD of the protein, either way, in both replicates (recomputed)
alvocidib = compound: CN1CC[C@H](c2c(O)cc(O)c3c(=O)cc(-c4ccccc4Cl)oc23)[C@H](O)C1 [alvocidib]
In short: (§1)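 Log-two fold change in thermal stability relative to solvent controls is reported from duplicates. For each sample, crude K562 extract from dounce-homogenised pellets in PBS pH 7.4 with 1 mM MgCl2, at 1 mg/mL protein, was treated with 10 μM compound for 30 min. Aliquots heated for 3 min across 48°C-58°C were pooled, brought to 0.5% NP-40 at 4°C and cleared at 21,000xg for 90 min. The supernatant was quantified by TMTpro 16plex LC-MS/MS with channel sums equalised.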

By UniProt entry, the sequences of proteins in these tests, tags left out. Where a name states a change or a piece, a line headed by the entry shows the natural chain unless it says otherwise.
UniProt P12235: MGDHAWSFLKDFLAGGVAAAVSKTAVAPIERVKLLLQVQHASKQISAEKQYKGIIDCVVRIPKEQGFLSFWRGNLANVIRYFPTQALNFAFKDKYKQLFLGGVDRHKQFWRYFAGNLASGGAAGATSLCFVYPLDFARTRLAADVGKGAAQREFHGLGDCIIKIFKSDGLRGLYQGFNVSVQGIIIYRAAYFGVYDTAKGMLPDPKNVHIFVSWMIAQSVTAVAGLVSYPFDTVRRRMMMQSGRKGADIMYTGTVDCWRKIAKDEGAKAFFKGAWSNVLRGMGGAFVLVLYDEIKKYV
UniProt P19634, whole entry, looked up: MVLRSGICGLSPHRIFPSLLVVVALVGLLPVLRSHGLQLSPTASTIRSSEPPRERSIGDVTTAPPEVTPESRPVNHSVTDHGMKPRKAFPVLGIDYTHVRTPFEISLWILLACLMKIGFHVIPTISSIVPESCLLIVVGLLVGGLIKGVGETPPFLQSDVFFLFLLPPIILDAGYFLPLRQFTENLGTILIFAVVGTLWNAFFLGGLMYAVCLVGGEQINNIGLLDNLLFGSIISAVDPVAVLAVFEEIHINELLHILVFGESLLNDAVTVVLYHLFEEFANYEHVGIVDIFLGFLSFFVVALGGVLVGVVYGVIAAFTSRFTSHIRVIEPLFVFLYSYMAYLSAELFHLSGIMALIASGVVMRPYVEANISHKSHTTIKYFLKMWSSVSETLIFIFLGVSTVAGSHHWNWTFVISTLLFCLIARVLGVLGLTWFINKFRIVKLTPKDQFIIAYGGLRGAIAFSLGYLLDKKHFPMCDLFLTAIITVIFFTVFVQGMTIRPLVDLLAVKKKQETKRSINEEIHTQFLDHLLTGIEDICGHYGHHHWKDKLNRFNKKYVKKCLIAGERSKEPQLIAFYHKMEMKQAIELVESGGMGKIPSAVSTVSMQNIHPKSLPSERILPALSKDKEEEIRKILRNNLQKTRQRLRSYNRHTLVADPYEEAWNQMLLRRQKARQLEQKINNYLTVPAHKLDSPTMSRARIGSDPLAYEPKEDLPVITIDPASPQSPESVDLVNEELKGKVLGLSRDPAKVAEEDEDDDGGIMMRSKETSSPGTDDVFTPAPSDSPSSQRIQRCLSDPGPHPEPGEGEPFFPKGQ
UniProt Q8NBW4: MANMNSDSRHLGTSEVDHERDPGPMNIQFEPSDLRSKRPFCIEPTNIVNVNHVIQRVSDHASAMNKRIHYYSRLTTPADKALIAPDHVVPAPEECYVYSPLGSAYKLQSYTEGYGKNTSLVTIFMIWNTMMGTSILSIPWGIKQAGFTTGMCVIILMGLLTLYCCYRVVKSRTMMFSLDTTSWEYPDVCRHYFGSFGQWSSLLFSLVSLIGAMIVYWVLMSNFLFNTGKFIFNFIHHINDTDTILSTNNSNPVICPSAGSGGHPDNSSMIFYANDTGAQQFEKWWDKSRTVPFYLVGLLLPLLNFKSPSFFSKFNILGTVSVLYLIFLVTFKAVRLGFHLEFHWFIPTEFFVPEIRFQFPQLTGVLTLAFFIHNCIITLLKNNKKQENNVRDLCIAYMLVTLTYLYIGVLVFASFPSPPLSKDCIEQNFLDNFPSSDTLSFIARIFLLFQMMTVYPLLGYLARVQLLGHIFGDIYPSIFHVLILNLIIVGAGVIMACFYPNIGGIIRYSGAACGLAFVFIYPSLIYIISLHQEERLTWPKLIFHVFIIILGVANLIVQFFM
UniProt O00193: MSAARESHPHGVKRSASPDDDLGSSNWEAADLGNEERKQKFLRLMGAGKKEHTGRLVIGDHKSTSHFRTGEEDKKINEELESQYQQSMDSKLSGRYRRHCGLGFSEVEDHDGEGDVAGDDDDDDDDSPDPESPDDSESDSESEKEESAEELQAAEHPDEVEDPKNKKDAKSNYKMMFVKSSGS
UniProt P05141: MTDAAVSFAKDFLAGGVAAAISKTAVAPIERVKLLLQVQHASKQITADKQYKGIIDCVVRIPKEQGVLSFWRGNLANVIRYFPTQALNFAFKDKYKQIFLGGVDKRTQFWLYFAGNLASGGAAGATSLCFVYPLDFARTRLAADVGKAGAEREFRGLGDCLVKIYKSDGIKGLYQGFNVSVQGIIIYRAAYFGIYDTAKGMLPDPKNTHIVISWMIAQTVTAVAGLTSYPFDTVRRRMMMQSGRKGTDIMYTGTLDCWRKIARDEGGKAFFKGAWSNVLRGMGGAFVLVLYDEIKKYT
UniProt Q9BRY0: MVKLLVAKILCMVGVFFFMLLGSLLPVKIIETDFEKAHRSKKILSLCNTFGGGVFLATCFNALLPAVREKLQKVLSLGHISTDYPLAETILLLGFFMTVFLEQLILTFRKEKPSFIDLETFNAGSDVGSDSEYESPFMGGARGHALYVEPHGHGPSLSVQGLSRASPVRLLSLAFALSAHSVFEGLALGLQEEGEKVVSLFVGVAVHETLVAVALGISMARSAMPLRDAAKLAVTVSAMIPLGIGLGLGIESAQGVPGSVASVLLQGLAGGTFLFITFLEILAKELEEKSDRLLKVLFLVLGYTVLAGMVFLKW
UniProt Q7Z2H8: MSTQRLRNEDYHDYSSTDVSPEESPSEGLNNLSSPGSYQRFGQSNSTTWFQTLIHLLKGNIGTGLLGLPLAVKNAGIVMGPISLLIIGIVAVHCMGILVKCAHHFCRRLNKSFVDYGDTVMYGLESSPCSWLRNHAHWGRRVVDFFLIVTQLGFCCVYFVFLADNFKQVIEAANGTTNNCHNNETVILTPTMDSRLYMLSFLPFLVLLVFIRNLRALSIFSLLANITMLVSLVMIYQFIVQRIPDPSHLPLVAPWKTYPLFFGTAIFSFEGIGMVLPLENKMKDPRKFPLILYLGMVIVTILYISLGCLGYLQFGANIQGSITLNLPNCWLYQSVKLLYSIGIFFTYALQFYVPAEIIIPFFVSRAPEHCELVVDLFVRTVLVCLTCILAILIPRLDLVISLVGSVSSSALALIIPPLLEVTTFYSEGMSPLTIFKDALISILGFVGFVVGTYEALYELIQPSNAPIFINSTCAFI
UniProt O95258: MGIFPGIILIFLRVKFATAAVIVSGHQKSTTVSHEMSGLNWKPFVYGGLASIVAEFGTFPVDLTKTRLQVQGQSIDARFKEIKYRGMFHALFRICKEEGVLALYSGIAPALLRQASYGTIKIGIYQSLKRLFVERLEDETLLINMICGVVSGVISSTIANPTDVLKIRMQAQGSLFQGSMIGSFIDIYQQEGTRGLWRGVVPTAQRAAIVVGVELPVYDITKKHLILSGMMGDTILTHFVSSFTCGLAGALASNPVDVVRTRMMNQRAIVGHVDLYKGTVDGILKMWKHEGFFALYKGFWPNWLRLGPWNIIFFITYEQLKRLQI
UniProt Q9UPY5: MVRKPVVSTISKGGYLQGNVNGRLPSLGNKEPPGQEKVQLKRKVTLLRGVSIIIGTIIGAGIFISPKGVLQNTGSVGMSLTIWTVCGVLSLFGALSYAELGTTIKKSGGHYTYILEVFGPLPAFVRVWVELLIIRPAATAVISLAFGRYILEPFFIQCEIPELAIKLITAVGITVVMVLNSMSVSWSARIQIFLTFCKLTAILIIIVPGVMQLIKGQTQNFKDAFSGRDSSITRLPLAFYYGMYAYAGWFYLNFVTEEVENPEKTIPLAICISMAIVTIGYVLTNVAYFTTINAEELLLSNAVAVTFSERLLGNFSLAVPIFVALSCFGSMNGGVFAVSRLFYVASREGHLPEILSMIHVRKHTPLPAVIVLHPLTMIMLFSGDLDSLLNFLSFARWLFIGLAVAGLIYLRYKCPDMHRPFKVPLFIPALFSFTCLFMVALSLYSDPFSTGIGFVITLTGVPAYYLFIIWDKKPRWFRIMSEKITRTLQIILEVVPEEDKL
UniProt O75746: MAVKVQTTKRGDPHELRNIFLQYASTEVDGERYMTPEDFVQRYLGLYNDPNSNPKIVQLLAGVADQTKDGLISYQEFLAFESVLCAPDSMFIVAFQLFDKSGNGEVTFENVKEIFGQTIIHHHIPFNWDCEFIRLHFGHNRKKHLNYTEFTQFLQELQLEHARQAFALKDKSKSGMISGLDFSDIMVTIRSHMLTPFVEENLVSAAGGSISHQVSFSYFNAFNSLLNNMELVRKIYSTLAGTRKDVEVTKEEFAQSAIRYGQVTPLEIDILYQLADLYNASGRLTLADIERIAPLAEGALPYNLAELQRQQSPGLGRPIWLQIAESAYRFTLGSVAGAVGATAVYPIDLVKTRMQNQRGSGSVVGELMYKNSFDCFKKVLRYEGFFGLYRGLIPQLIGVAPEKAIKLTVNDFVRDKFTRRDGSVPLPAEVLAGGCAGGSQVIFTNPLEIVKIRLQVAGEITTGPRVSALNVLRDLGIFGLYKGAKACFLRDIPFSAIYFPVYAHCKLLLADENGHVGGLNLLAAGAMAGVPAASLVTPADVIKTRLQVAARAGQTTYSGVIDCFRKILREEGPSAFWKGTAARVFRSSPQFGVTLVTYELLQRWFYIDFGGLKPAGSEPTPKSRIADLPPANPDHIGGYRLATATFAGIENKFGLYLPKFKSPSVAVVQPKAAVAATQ
UniProt Q9BSK2: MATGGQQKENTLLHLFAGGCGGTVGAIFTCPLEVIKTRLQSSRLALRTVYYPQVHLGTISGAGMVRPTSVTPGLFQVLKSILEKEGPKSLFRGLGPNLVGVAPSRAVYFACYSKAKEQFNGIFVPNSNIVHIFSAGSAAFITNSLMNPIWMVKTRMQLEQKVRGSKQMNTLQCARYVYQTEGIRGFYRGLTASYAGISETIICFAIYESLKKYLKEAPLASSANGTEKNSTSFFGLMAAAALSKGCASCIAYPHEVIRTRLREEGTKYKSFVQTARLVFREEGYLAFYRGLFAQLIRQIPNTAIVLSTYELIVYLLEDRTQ
UniProt Q9H936: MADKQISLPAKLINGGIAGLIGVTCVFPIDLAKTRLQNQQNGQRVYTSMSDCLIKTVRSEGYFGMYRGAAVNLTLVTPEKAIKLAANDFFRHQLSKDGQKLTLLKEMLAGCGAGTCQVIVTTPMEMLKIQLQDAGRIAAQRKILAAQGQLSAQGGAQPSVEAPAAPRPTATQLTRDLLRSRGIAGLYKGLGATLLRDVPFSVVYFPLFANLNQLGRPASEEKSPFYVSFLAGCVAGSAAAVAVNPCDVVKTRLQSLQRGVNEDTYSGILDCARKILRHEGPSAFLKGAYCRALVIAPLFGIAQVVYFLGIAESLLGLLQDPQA
UniProt Q6P1M0: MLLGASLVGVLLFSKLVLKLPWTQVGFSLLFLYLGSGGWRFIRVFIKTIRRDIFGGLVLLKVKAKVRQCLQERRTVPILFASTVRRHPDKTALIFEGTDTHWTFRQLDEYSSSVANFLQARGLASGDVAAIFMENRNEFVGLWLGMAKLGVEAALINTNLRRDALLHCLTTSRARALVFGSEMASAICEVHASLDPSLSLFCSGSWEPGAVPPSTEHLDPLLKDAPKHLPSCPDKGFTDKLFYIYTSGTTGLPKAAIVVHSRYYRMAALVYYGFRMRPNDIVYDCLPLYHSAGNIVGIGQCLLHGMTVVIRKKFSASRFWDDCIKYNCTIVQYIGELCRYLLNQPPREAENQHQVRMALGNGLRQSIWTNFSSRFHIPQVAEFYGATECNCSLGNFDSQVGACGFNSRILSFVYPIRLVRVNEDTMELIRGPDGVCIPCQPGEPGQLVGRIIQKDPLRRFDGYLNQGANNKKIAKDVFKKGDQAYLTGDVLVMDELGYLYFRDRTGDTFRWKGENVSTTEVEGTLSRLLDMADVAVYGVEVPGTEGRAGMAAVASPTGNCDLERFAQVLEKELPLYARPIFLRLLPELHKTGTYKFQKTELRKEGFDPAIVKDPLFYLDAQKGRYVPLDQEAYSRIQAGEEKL
UniProt Q8N357: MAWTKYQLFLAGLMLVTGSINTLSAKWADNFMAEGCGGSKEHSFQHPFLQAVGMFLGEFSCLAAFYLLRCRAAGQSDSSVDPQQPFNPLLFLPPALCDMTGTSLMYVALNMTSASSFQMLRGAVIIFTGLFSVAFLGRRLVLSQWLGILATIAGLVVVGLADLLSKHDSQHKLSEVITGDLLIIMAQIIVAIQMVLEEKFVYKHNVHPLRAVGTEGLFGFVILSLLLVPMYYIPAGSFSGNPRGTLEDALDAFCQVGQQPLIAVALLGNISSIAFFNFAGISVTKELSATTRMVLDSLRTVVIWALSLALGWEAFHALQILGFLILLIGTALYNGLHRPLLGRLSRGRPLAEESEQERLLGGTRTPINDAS
UniProt Q96AG3: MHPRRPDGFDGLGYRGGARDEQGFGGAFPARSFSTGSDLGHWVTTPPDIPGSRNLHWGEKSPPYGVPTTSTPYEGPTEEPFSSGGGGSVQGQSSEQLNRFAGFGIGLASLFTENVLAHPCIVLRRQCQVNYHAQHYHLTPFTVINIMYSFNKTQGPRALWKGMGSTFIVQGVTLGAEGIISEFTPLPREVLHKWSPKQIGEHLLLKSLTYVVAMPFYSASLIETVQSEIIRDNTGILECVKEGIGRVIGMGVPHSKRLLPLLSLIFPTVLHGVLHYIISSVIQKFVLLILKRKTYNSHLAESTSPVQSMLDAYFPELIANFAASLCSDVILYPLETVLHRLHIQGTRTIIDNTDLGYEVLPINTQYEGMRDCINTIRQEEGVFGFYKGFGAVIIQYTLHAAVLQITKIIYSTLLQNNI

Tubastatin A = compound: CN1CCc2c(c3ccccc3n2Cc2ccc(C(=O)NO)cc2)C1 [Tubastatin A]
In short: as §1

[1] = compound: CNC(=O)C1=CC=CC=C1NC2=NC(=NC=C2Cl)NC3=C(C=C(C=C3)N4CCOCC4)OC
In short: as §1

defactinib = compound: CNC(=O)c1ccc(Nc2ncc(C(F)(F)F)c(NCc3nccnc3N(C)S(C)(=O)=O)n2)cc1 [defactinib]
In short: as §1

[2] = compound: CNc1nc(-c2ccc3c(N)n[nH]c3c2)cc(N2C[C@@H](C(=O)NC3CCCCC3)CC[C@H]2C)n1
In short: as §1

encorafenib = compound: COC(=O)N[C@@H](C)CNc1nccc(-c2cn(C(C)C)nc2-c2cc(Cl)cc(NS(C)(=O)=O)c2F)n1 [encorafenib]
In short: as §1

[3] = compound: COC(=O)[C@H](CCSC)NC(=O)C1=C(C=C(C=C1)NC[C@H](CS)N)C2=CC=CC=C2
In short: as §1

alisertib = compound: COc1cc(Nc2ncc3c(n2)-c2ccc(Cl)cc2C(c2c(F)cccc2OC)=NC3)ccc1C(=O)O [alisertib]
In short: as §1

[4] = compound: COc1cc2nc(-c3cc(F)ccc3O)nc(N[C@@H]3CNC[C@H]3C(C)(C)O)c2cc1OC
In short: as §1

gefitinib = compound: COc1cc2ncnc(Nc3ccc(F)c(Cl)c3)c2cc1OCCCN1CCOCC1 [gefitinib]
In short: as §1

Measured: log2 fold change

SLC25A4 (UniProt P12235)
inactive: alvocidib -0.088 | Tubastatin A -0.008 | [1] 0.028 | defactinib -0.009 | [2] -0.016 | encorafenib 0.004 | [3] 0.108 | alisertib 0.01 | [4] 0.012 | gefitinib 0.011

SLC9A1 (UniProt P19634)
inactive: alvocidib 0.004 | Tubastatin A 0.176 | [1] 0.038 | defactinib -0.039 | [2] 0.028 | encorafenib -0.007 | [3] -0.037 | alisertib 0.012 | [4] 0.029 | gefitinib -0.133

SLC35A4 (UniProt L0R6Q1)
inactive: alvocidib -0.024 | Tubastatin A 0.082 | [1] 0.055 | defactinib 0.124 | [2] 0.06 | encorafenib 0.037 | [3] 0.022 | alisertib 0.042 | [4] -0.054 | gefitinib -0.147

SLC38A9 (UniProt Q8NBW4)
inactive: alvocidib 0 | Tubastatin A 0.045 | [1] 0.025 | defactinib 0.014 | [2] -0.025 | encorafenib 0.059 | [3] -0.03 | alisertib -0.031 | [4] 0 | gefitinib -0.057

SLC9A3R1 (UniProt O14745)
inactive: alvocidib -0.003 | Tubastatin A 0.046 | [1] -0.003 | defactinib -0.012 | [2] 0.046 | encorafenib -0.006 | [3] -0.052 | alisertib -0.016 | [4] 0.028 | gefitinib -0.01

SLC48A1 (UniProt Q6P1K1)
inactive: alvocidib -0.011 | Tubastatin A 0.005 | [1] -0.023 | defactinib -0.047 | [2] -0.012 | encorafenib 0.021 | [3] 0.087 | alisertib -0.293 | [4] 0.112 | gefitinib -0.104

SMAP (UniProt O00193)
inactive: alvocidib 0.04 | Tubastatin A 0.022 | [1] 0.02 | defactinib 0 | [2] 0.055 | encorafenib -0.017 | [3] -0.027 | alisertib 0.02 | [4] 0.021 | gefitinib -0.031

SLC25A5 (UniProt P05141)
inactive: alvocidib 0.075 | Tubastatin A 0.067 | [1] 0.06 | defactinib -0.014 | [2] 0.105 | encorafenib -0.025 | [3] 0.079 | alisertib 0.022 | [4] 0.025 | gefitinib -0.052

SLMAP isoform 3 (UniProt Q14BN4)
inactive: alvocidib -0.03 | Tubastatin A -0.044 | [1] -0.001 | defactinib 0.033 | [2] -0.022 | encorafenib 0.025 | [3] 0.159 | alisertib 0.06 | [4] 0.049 | gefitinib 0.09

SLC40A1 (UniProt Q9NP59)
inactive: alvocidib 0.002 | Tubastatin A 0.145 | [1] -0.05 | defactinib 0.087 | [2] -0.029 | encorafenib 0.013 | [3] -0.072 | alisertib 0.018 | [4] 0.039 | gefitinib -0.01

SLC39A3 (UniProt Q9BRY0)
inactive: alvocidib -0.017 | Tubastatin A -0.068 | [1] 0.091 | defactinib -0.017 | [2] -0.048 | encorafenib -0.02 | [3] -0.039 | alisertib -0.015 | [4] -0.009 | gefitinib 0.005

SLC25A26 (UniProt Q70HW3)
inactive: alvocidib -0.083 | Tubastatin A 0.041 | [1] 0.114 | defactinib 0.012 | [2] -0.036 | encorafenib 0.048 | [3] -0.102 | alisertib 0.027 | [4] -0.033 | gefitinib 0.124

SLC36A1 (UniProt Q7Z2H8)
inactive: alvocidib 0.098 | Tubastatin A 0.055 | [1] 0.076 | defactinib 0.027 | [2] -0.049 | encorafenib 0.113 | [3] 0.004 | alisertib 0.153 | [4] -0.023 | gefitinib -0.16

SLC25A14 isoform 3 (UniProt O95258)
inactive: alvocidib 0.031 | Tubastatin A -0.01 | [1] 0.006 | defactinib -0.024 | [2] 0.057 | encorafenib 0.059 | [3] -0.069 | alisertib 0.019 | [4] 0.006 | gefitinib -0.063

SLC7A11 (UniProt Q9UPY5)
inactive: alvocidib -0.041 | Tubastatin A 0.028 | [1] -0.059 | defactinib -0.042 | [2] 0.101 | encorafenib 0.003 | [3] -0.043 | alisertib -0.069 | [4] 0.014 | gefitinib 0.039

SLC6A8 isoform 2 (UniProt P48029)
inactive: alvocidib -0.009 | Tubastatin A 0.065 | [1] -0.091 | defactinib 0.057 | [2] 0.111 | encorafenib 0.107 | [3] -0.119 | alisertib 0.04 | [4] 0.048 | gefitinib -0.078

SLC25A12 (UniProt O75746)
inactive: alvocidib 0.002 | Tubastatin A 0.051 | [1] 0.02 | defactinib 0.013 | [2] -0.011 | encorafenib -0.008 | [3] 0.034 | alisertib -0.018 | [4] 0.012 | gefitinib -0.016

SLC9A3R2 (UniProt Q15599)
inactive: alvocidib -0.032 | Tubastatin A -0.009 | [1] 0.027 | defactinib -0.002 | [2] -0.028 | encorafenib -0.012 | [3] -0.072 | alisertib 0.01 | [4] 0.013 | gefitinib -0.008

SLC4A1 (UniProt P02730)
inactive: alvocidib -0.039 | Tubastatin A 0.054 | [1] -0.469 | defactinib -0.086 | [2] 0.058 | encorafenib 0.046 | [3] 0.032 | alisertib -0.065 | [4] 0.053 | gefitinib -0.052

SLC25A33 (UniProt Q9BSK2)
inactive: alvocidib 0.032 | Tubastatin A 0.038 | [1] 0.122 | defactinib -0.066 | [2] -0.085 | encorafenib -0.097 | [3] 0.089 | alisertib 0.038 | [4] 0.009 | gefitinib -0.125

SLC30A1 (UniProt Q9Y6M5)
inactive: alvocidib -0.01 | Tubastatin A 0.07 | [1] -0.009 | defactinib 0.013 | [2] 0.037 | encorafenib -0.011 | [3] -0.021 | alisertib -0.059 | [4] 0.007 | gefitinib 0.02

SLC5A6 (UniProt Q9Y289)
inactive: alvocidib -0.111 | Tubastatin A 0.054 | [1] -0.004 | defactinib -0.03 | [2] 0.024 | encorafenib 0.015 | [3] -0.059 | alisertib -0.029 | [4] 0.039 | gefitinib 0.034

SLC25A22 (UniProt Q9H936)
inactive: alvocidib -0.026 | Tubastatin A -0.01 | [1] 0.001 | defactinib 0.041 | [2] 0.018 | encorafenib 0.021 | [3] 0.008 | alisertib 0.037 | [4] 0.02 | gefitinib 0.008

SLC44A2 (UniProt Q8IWA5)
inactive: alvocidib 0.085 | Tubastatin A 0.085 | [1] -0.044 | defactinib 0.128 | [2] -0.021 | encorafenib 0.009 | [3] -0.092 | alisertib -0.039 | [4] 0.028 | gefitinib -0.047

SLC27A4 (UniProt Q6P1M0)
inactive: alvocidib -0.019 | Tubastatin A -0.021 | [1] -0.009 | defactinib -0.157 | [2] -0.062 | encorafenib 0.135 | [3] 0.006 | alisertib 0.039 | [4] 0.062 | gefitinib -0.067

SLC5A3 (UniProt P53794)
inactive: alvocidib 0.002 | Tubastatin A -0.053 | [1] 0.069 | defactinib 0.018 | [2] 0.046 | encorafenib 0.021 | [3] -0.01 | alisertib -0.025 | [4] 0.029 | gefitinib 0.038

SLC35F6 (UniProt Q8N357)
inactive: alvocidib -0.05 | Tubastatin A 0.115 | [1] 0.022 | defactinib 0.014 | [2] 0.03 | encorafenib 0.064 | [3] -0.05 | alisertib 0.052 | [4] -0.001 | gefitinib 0.011

SLC25A1 (UniProt P53007)
inactive: alvocidib 0.02 | Tubastatin A 0.041 | [1] 0.015 | defactinib 0.008 | [2] 0.011 | encorafenib 0.009 | [3] 0.077 | alisertib 0.05 | [4] 0 | gefitinib -0.034

SLC25A46 (UniProt Q96AG3)
inactive: alvocidib -0.006 | Tubastatin A 0.006 | [1] -0.057 | defactinib 0.004 | [2] -0.006 | encorafenib 0.016 | [3] 0.041 | alisertib -0.004 | [4] 0.02 | gefitinib 0.012
